This data set addresses T1, GST-SUVR5 zinc finger domain (Arabidopsis thaliana) (UniProt O64827).
T1 sequence (looked up): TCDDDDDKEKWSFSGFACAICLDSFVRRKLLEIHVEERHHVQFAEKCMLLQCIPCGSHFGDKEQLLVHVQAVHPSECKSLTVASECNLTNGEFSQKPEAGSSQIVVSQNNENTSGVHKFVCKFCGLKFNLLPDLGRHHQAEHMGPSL
The experiment in a line: EMSA. The note with it: 100, 250 and 500 ng protein; EMSA: 12% glycerol, 20 mM Tris-HCl pH 7.5, 50 mM KCl, 1 mM MgCl2, 1 mM DTT; temperature not stated; recombinant protein; residues 720-866; protein details: GST (pDEST15). In general terms: A gel shift assay detects complexes by their altered migration in electrophoresis.

For at least one entry, the source does not settle the construct or the ends of the probe. At least one verdict rests on a figure or table, not on a statement of the authors. Protein sequences can lack the tags named with them.

For the sequence “GTAGAATACTAGTTGATAAC (double strand) [specific probe JP8489/JP8495]”, the binding result is recorded as “binds”.
